PubChem BioAssay AID1259425 | University of Nebraska Medical Center, 2018

- Assay: 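Seek colon cancer weak points whose silencing resembles KSR1 loss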 (primary screen)
- Cell system: HCT116 human colon cancer cells
- Knock-down reagent: siRNA pool against human genes, 50 nM siRNA
- Measurement: 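mRNA of six signature genes measured together by branched-DNA assay after 50 nM siRNA pool, blank removed, divided by geometric mean of two housekeeping genes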
- Reading the numbers: BNIP3L mRNA: higher = more BNIP3L transcript after knockdown; NDRG1 mRNA: higher = more NDRG1 transcript after knockdown
Shown is an unselected part of about 14,000 deposited reagents. Reagents against one gene are numbered here. Further read-outs or replicates are left out here. Not stated in the record: the time to read-out.

{"gene symbol": "NCF1C", "pool no.": 1, "BNIP3L mRNA, set 1": 0.126, "NDRG1 mRNA, set 1": 0.356}
{"gene symbol": "DNAAF5", "pool no.": 1, "BNIP3L mRNA, set 1": 0.0677, "NDRG1 mRNA, set 1": 0.165}
{"gene symbol": "PTK2", "pool no.": 1, "BNIP3L mRNA, set 1": 0.121, "NDRG1 mRNA, set 1": 0.092}
{"gene symbol": "STMN3", "pool no.": 1, "BNIP3L mRNA, set 1": 0.0837, "NDRG1 mRNA, set 1": 0.265}
{"gene symbol": "DDIT4", "pool no.": 1, "BNIP3L mRNA, set 1": 0.0742, "NDRG1 mRNA, set 1": 0.323}
{"gene symbol": "IDO1", "pool no.": 1, "BNIP3L mRNA, set 1": 0.0984, "NDRG1 mRNA, set 1": 0.232}
{"gene symbol": "RPS18", "pool no.": 1, "BNIP3L mRNA, set 1": 0.0503, "NDRG1 mRNA, set 1": 0.304}
{"gene symbol": "ANAPC7", "pool no.": 1, "BNIP3L mRNA, set 1": 0.0537, "NDRG1 mRNA, set 1": 0.205}
{"gene symbol": "NUP50", "pool no.": 1, "BNIP3L mRNA, set 1": 0.0628, "NDRG1 mRNA, set 1": 0.219}
{"gene symbol": "KRT33B", "pool no.": 1, "BNIP3L mRNA, set 1": 0.17, "NDRG1 mRNA, set 1": 0.316}
{"gene symbol": "NPR3", "pool no.": 1, "BNIP3L mRNA, set 1": 0.273, "NDRG1 mRNA, set 1": 0.448}
{"gene symbol": "NPR3", "pool no.": 2, "BNIP3L mRNA, set 1": 0.168, "NDRG1 mRNA, set 1": 0.136}
{"gene symbol": "ABCF1", "pool no.": 1, "BNIP3L mRNA, set 1": 0.0747, "NDRG1 mRNA, set 1": 0.185}
{"gene symbol": "PFKL", "pool no.": 1, "BNIP3L mRNA, set 1": 0.237, "NDRG1 mRNA, set 1": 0.172}
{"gene symbol": "PRSS1", "pool no.": 1, "BNIP3L mRNA, set 1": 0.1, "NDRG1 mRNA, set 1": 0.119}
{"gene symbol": "PAFAH1B3", "pool no.": 1, "BNIP3L mRNA, set 1": 0.0794, "NDRG1 mRNA, set 1": 0.33}
{"gene symbol": "VEGFB", "pool no.": 1, "BNIP3L mRNA, set 1": 0.188, "NDRG1 mRNA, set 1": 0.605}
{"gene symbol": "DSPP", "pool no.": 1, "BNIP3L mRNA, set 1": 0.203, "NDRG1 mRNA, set 1": 0.154}
{"gene symbol": "LCOR", "pool no.": 1, "BNIP3L mRNA, set 1": 0.132, "NDRG1 mRNA, set 1": 0.751}
{"gene symbol": "LCOR", "pool no.": 2, "BNIP3L mRNA, set 1": 0.0736, "NDRG1 mRNA, set 1": 0.117}

Targets above whose target name begins with N or n:
{"gene symbol": "NCF1C", "pool no.": 1, "BNIP3L mRNA, set 1": 0.126, "NDRG1 mRNA, set 1": 0.356}
{"gene symbol": "NUP50", "pool no.": 1, "BNIP3L mRNA, set 1": 0.0628, "NDRG1 mRNA, set 1": 0.219}
{"gene symbol": "NPR3", "pool no.": 1, "BNIP3L mRNA, set 1": 0.273, "NDRG1 mRNA, set 1": 0.448}
{"gene symbol": "NPR3", "pool no.": 2, "BNIP3L mRNA, set 1": 0.168, "NDRG1 mRNA, set 1": 0.136}
